These results are taken from the supplement of paper PMC12067093, “Discovery and optimisation of a covalent ligand for TRIM25 and its application to targeted protein ubiquitination” (Chemical Science, 2025).

Protein sequences, listed by entry. Tags and fused reporters are not part of them. Lines headed by an entry give the natural chain unless they say otherwise; changes in a name come on top.
UniProt Q8N4C6: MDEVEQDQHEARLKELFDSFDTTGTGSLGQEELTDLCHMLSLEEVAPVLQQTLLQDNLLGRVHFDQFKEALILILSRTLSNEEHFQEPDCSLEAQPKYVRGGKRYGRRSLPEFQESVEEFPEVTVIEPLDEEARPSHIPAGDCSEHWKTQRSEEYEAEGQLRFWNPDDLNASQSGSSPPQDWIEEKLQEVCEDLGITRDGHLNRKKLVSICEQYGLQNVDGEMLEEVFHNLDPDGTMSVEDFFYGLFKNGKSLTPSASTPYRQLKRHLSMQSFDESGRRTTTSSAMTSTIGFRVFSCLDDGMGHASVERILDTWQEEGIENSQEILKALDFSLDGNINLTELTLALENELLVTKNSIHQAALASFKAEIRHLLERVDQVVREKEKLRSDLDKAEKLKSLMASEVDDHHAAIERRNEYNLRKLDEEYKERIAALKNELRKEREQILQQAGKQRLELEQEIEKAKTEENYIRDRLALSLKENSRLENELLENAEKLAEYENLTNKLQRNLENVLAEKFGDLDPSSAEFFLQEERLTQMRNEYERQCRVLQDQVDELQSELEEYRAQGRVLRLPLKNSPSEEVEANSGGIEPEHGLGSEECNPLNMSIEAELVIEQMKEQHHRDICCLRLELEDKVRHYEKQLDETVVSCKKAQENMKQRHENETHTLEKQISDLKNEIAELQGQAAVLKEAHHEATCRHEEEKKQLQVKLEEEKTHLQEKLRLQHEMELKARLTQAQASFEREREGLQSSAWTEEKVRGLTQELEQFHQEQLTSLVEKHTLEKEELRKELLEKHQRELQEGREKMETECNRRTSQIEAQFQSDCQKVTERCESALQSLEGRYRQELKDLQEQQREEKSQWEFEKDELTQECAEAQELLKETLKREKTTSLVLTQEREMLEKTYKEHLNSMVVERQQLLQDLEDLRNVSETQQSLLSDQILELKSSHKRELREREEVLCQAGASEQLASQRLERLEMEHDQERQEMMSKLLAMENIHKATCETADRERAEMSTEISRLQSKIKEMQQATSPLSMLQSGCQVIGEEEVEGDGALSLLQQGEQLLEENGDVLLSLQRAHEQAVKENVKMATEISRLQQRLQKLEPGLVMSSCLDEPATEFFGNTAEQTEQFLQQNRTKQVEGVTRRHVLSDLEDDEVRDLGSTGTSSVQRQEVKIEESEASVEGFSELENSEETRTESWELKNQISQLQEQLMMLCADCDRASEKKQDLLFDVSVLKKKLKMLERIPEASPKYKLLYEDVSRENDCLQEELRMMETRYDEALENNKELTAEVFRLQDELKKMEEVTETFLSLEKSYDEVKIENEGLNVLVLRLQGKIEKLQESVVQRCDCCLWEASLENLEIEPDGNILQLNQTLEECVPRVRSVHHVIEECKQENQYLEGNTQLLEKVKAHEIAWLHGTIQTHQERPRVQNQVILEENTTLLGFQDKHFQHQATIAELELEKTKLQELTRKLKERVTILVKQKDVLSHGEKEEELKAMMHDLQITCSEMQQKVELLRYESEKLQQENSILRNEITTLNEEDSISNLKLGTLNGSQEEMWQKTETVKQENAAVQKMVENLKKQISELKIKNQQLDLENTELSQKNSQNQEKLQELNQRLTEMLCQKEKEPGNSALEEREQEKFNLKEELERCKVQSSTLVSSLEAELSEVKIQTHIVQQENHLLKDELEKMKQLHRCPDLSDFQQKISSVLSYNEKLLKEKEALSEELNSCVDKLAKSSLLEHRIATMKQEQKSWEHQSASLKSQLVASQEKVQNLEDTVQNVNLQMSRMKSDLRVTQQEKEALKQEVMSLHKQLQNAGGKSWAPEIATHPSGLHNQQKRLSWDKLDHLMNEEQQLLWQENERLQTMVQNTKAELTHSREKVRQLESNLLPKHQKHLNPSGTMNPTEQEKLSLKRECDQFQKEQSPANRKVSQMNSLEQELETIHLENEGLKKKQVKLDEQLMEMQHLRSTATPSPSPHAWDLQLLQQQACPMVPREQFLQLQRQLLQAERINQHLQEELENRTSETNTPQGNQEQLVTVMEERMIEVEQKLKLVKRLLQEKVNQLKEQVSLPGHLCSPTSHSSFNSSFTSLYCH
UniProt P08651, whole entry, looked up: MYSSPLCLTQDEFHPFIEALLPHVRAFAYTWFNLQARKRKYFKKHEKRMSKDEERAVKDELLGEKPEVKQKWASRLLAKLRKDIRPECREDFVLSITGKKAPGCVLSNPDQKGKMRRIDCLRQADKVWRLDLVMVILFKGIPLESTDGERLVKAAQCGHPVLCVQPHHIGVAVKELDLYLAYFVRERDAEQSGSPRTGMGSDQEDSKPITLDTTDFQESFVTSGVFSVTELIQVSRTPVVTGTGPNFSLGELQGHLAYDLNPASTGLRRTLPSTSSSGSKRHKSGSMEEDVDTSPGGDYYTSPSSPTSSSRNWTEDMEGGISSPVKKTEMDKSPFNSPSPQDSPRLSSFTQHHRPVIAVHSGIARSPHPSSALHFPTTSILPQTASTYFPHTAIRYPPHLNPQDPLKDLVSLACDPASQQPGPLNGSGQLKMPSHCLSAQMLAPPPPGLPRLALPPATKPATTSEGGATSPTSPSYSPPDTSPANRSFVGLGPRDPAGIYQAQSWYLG
UniProt Q13469: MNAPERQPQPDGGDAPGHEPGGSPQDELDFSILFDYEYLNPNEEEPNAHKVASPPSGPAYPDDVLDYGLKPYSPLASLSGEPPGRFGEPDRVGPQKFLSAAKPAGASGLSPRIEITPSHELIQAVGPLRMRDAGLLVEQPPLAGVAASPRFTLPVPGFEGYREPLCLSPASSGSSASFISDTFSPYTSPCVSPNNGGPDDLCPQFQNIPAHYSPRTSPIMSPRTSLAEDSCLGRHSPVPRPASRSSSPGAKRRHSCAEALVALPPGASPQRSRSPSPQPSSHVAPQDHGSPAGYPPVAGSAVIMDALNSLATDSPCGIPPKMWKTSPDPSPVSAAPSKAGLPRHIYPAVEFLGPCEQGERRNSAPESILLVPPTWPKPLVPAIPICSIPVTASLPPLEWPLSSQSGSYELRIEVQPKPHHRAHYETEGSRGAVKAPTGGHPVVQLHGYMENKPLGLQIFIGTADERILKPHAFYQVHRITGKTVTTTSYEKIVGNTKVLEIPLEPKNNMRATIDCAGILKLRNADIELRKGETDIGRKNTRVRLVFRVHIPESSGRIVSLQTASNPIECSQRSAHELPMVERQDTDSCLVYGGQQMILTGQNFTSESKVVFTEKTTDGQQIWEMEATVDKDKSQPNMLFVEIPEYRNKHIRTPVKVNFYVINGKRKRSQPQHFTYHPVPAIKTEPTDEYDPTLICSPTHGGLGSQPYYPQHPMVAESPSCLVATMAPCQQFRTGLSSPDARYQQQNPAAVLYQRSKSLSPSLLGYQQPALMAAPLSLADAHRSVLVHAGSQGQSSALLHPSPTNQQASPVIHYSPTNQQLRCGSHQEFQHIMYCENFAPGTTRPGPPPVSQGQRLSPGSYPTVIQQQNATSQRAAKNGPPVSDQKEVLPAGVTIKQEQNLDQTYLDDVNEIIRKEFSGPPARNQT
UniProt Q6KC79: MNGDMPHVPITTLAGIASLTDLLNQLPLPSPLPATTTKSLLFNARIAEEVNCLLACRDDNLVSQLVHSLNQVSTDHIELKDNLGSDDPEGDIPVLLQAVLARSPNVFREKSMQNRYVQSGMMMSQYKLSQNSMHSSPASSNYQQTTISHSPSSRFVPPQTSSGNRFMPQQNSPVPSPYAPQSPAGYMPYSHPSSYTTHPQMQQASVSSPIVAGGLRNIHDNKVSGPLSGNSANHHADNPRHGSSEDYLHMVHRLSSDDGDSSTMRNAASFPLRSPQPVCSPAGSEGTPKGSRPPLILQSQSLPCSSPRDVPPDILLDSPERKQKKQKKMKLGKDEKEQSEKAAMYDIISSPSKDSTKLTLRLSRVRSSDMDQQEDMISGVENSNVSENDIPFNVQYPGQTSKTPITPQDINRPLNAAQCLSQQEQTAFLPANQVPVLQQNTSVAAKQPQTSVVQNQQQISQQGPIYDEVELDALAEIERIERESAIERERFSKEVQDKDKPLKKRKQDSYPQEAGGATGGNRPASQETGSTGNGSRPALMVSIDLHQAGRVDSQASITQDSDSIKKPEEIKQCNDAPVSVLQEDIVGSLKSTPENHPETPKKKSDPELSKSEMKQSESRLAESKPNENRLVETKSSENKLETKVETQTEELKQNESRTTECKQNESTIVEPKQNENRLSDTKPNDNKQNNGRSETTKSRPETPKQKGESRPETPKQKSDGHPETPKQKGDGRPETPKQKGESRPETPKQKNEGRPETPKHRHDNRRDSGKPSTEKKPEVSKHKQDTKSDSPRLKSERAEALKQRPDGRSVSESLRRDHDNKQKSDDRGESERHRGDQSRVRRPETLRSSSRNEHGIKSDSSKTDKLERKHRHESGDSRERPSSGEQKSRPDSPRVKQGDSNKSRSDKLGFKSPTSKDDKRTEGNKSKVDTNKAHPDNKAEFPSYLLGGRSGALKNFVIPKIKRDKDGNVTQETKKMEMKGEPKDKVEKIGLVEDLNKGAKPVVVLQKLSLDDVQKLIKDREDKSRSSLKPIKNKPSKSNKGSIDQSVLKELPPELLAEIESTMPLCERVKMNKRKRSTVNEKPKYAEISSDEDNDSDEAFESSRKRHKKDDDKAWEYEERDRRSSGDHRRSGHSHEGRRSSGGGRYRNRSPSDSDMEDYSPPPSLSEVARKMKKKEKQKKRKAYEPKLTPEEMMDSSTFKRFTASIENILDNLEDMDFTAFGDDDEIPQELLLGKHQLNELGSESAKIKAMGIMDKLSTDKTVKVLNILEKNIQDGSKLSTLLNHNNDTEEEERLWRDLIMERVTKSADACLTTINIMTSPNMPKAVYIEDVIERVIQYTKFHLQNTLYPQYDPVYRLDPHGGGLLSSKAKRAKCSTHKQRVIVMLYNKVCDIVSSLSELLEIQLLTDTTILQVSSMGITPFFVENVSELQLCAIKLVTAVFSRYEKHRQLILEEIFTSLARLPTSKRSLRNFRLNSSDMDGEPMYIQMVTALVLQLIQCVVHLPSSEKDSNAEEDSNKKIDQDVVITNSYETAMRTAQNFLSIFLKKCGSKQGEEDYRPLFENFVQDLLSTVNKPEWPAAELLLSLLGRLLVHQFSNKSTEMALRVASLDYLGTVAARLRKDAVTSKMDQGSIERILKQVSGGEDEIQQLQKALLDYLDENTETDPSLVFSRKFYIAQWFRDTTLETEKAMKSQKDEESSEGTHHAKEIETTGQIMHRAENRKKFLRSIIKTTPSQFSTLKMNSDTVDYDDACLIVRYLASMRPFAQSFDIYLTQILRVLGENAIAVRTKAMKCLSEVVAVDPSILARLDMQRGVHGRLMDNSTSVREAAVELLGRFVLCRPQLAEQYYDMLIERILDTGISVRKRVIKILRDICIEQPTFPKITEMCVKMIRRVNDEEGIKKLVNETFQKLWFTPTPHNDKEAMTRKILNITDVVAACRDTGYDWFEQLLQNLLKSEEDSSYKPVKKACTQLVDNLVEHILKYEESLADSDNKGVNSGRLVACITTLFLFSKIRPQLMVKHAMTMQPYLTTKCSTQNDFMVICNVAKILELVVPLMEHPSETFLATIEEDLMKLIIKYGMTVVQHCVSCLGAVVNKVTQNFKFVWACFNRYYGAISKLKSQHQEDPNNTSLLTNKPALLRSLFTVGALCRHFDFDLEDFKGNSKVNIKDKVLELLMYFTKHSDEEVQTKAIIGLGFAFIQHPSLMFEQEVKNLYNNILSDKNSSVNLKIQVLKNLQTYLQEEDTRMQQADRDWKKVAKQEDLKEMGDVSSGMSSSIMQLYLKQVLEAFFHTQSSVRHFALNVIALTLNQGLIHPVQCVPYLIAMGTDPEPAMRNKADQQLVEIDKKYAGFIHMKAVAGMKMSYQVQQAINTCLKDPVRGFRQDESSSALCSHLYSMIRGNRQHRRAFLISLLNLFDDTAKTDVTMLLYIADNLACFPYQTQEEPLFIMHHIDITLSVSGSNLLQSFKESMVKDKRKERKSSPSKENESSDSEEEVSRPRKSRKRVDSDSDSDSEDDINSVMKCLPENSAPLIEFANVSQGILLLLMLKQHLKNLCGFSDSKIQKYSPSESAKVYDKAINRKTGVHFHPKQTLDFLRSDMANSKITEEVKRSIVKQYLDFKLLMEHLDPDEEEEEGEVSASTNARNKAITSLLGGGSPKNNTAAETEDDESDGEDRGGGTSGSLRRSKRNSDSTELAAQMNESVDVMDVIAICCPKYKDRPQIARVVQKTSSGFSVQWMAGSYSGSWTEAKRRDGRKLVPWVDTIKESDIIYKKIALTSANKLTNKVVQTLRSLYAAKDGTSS
UniProt Q9NYR9: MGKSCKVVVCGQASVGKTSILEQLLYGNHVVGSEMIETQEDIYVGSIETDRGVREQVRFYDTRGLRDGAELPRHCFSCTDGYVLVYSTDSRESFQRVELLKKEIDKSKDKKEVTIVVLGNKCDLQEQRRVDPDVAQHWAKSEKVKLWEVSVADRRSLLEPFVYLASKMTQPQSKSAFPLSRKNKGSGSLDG

Some of the results follow.
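Further: competitive profiling in live THP-1 cells: cysteine peptides tagged with an iodoacetamide desthiobiotin (IA-DTB) probe, intensity after compound treatment relative to DMSO-treated cells.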

Compound in this test: Cc1cc(ccc1-c1ccccc1)C(=O)N1CCCN(CC1)C(=O)CCl [compound 10]
Nature of the test: probe-labelled cysteine peptide fold change vs DMSO (competition) (log2 fold change); higher = less target engagement (more negative = stronger competition). Particulars: 50 µM; THP-1; incubation time: 4 h.
As to “NIN_Q8N4C6_1502_AMMHDLQITCSEMQQK (UniProt Q8N4C6)”, the “probe-labelled cysteine peptide fold change” value came out at 0.0291.
Turning to “NFIC_P08651_157_AAQCGHPVLCVQPHHIGVAVK (UniProt P08651)”, the “probe-labelled cysteine peptide fold change” value was -0.151.
As for “NFATC2_Q13469_355_HIYPAVEFLGPCEQGER (UniProt Q13469)”, the “probe-labelled cysteine peptide fold change” value was -0.297.
For “NDUFA10_O95299_253_CEVLQYSAR (UniProt O95299)”, the “probe-labelled cysteine peptide fold change” value was -0.0217.
With “NDUFS1_P28331_564_DCFIIYQGHHGDVGAPIADVILPGAAYTEK (UniProt P28331)” the figure was -0.0788; with NIT1_Q86X76_67_TCAELVR (UniProt Q86X76), 0.121.
Regarding “NIPBL_Q6KC79_1841_FVLCRPQLAEQYYDMLIER (UniProt Q6KC79)”, the “probe-labelled cysteine peptide fold change” value worked out at 0.0567.
As for “NEU1_Q99519_230_DGVFCLLSDDHGASWR (UniProt Q99519)”, the “probe-labelled cysteine peptide fold change” value worked out at 0.0556.
The result for “NCKAP1L_P55160_612_QTSNCVLEICAEQR (UniProt P55160)” reads -0.354.
With “NCKIPSD_Q9NZQ3_429_CYLEELLHILTDADPEVCKK (UniProt Q9NZQ3)” the figure was -0.598.
In the case of “NDUFV1_P49821_286_LFNISGHVNHPCTVEEEMSVPLK (UniProt P49821)”, the “probe-labelled cysteine peptide fold change” value is -0.174.
Take “NDRG3_Q9UGV2_166_FALNHPELVEGLVLINVDPCAK (UniProt Q9UGV2)”: the “probe-labelled cysteine peptide fold change” value worked out at 0.0214.
With “NFATC2IP_Q8NCF5_332_LGVADIIDCVVLTSSPEATETSQQLQLR (UniProt Q8NCF5)” the figure was 0.0833; with “NFIC_P08651_157+163_AAQCGHPVLCVQPHHIGVAVK (UniProt P08651)”, -0.161.
Turning to “NDUFS1_P28331_367_VDSDTLCTEEVFPTAGAGTDLR (UniProt P28331)”, the “probe-labelled cysteine peptide fold change” value is 0.149.
Consider “NCKIPSD_Q9NZQ3_376_DLSMALPSGQVCHDQQR (UniProt Q9NZQ3)”, for which the “probe-labelled cysteine peptide fold change” value is -0.0364.
The result for “NFS1_Q9Y697_308_SGTVPTPLVVGLGAACEVAQQEMEYDHKR (UniProt Q9Y697)” reads 0.165; that for “NGLY1_Q96IV0_283+286_EVEDHYCDACQFSNRFPR (UniProt Q96IV0)”, -0.659.
As to “NKRF_O15226_424_SSQCHTGSSPR (UniProt O15226)”, the “probe-labelled cysteine peptide fold change” value is -0.397.
Take “NIPSNAP3A_Q9UFN0_135_QESEITYLVPWCK (UniProt Q9UFN0)”: the “probe-labelled cysteine peptide fold change” value came to 0.389.
On to “NIFK_Q9BYG3_118_LLECHFMPPEK (UniProt Q9BYG3)”, for which the “probe-labelled cysteine peptide fold change” value was -0.0823.
As for “NELFA_Q9H3P2_44_LCFHGLSSAVK (UniProt Q9H3P2)”, the “probe-labelled cysteine peptide fold change” value amounted to 0.306.
Consider “NFXL1_Q6ZNB6_371_TLPCGNHTCEQVCHVGACGECPR (UniProt Q6ZNB6)”, for which the “probe-labelled cysteine peptide fold change” value was determined as 0.0829.
With “NEK4_P51957-2_463_DQDQVAGECIIEK (UniProt P51957)” the figure was -0.573; with “NDUFA8_P51970_36_AAAHHYGAQCDK (UniProt P51970)”, 0.565; with NFIB_O00712_120_RIDCLR (UniProt O00712), -0.0338.
The result for “NFX1_Q12986_684_SEDATFMCDK (UniProt Q12986)” reads -0.433; that for “NEDD4_P46934_1197_IFDENELELLMCGLGDVDVNDWREHTK (UniProt P46934)”, -0.184.
For “NHP2_Q9NX24_18_IKADPDGPEAQAEACSGER (UniProt Q9NX24)”, the “probe-labelled cysteine peptide fold change” value was -0.496.
For the target “NDUFB7_P17568_80_DSFPNFLACK (UniProt P17568)”, the “probe-labelled cysteine peptide fold change” value was -0.00935.
“NDRG2_Q9UN36_255_CPVMLVVGDQAPHEDAVVECNSK (UniProt Q9UN36)”: the “probe-labelled cysteine peptide fold change” value was -0.291.
“NDUFV1_P49821_238_LKPPFPADVGVFGCPTTVANVETVAVSPTICR (UniProt P49821)”: the “probe-labelled cysteine peptide fold change” value was 0.234.
As for “NCOA5_Q9HCD5_301_YKNECR (UniProt Q9HCD5)”, the “probe-labelled cysteine peptide fold change” value was -0.252.
Consider “NIN_Q8N4C6_695_EAHHEATCR (UniProt Q8N4C6)”, for which the “probe-labelled cysteine peptide fold change” value turned out to be 0.089.
On to “NKIRAS2_Q9NYR9_10_VVVCGQASVGK (UniProt Q9NYR9)”, for which the “probe-labelled cysteine peptide fold change” value was -0.0492.
As for “NELFB_Q8WX92_235_NVHYCTLR (UniProt Q8WX92)”, the “probe-labelled cysteine peptide fold change” value was determined as 0.239.
As for “NDUFV1_P49821_238+255_LKPPFPADVGVFGCPTTVANVETVAVSPTICR (UniProt P49821)”, the “probe-labelled cysteine peptide fold change” value stood at 0.135.
Turning to “NCKIPSD_Q9NZQ3_700_ILNEEETSPQCQMDR (UniProt Q9NZQ3)”, the “probe-labelled cysteine peptide fold change” value worked out at 0.139.
